Results: article PMC3387162
Results are given in words; binding and its absence hold for the method and conditions named. In cells and extracts the contact can be indirect. Some binding calls cover weakened binding; strength is not graded here. Where a sequence is shown, tags or fusion partners need not be part of it.

Molecular target: T1, Venus-GABAA receptor α1 subunit fusion (inhibitory synapse affinity tag), P62812
T1 chain: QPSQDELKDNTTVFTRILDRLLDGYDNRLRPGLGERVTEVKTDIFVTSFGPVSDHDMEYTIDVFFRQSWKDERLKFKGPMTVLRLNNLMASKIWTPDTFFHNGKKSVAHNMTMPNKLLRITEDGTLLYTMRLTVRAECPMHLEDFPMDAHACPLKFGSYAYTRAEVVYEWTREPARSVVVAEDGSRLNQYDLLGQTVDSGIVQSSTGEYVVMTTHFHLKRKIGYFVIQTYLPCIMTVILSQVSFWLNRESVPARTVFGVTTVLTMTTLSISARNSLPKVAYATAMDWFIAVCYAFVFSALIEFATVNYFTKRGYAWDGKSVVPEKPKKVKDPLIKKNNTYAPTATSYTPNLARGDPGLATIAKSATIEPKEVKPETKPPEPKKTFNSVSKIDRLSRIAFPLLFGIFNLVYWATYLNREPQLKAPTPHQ
Assay: co-IP; crude synaptosome fraction of adult mouse cortex (Otx1-VGABAARα1 or Otx1-eGFP control) solubilised in 0.1% Triton X-100, gel filtration on Sephacryl S1000, high molecular weight fractions 6-10 pooled; immunopurified with anti-eGFP antibody on Dynabeads Protein G; immunoblot
Conditions: remark: other sources report otherwise

binding: binds
B1: Gephyrin, Q8BUV3 1-769 (protein)
chain: MATEGMILTNHDHQIRVGVLTVSDSCFRNLAEDRSGINLKDLVQDPSLLGGTISAYKIVPDEIEEIKETLIDWCDEKELNLILTTGGTGFAPRDVTPEATKEVIEREAPGMALAMLMGSLNVTPLGMLSRPVCGIRGKTLIINLPGSKKGSQECFQFILPALPHAIDLLRDAIVKVKEVHDELEDLPSPPPPLSPPPTTSPHKQTEDKGVQCEEEEEEKKDSGVASTEDSSSSHITAAALAAKIPDSIISRGVQVLPRDTASLSTTPSESPRAQATSRLSTASCPTPKQIRRPDESKGVASRVGSLKARLPSCSSTYSVSEVQSRCSSKENILRASHSAVDITKVARRHRMSPFPLTSMDKAFITVLEMTPVLGTEIINYRDGMGRVLAQDVYAKDNLPPFPASVKDGYAVRAADGPGDRFIIGESQAGEQPTQTVMPGQVMRVTTGAPIPCGADAVVQVEDTELIRESDDGTEELEVRILVQARPGQDIRPIGHDIKRGECVLAKGTHMGPSEIGLLATVGVTEVEVNKFPVVAVMSTGNELLNPEDDLLPGKIRDSNRSTLLATIQEHGYPTINLGIVGDNPDDLLNALNEGISRADVIITSGGVSMGEKDYLKQVLDIDLHAQIHFGRVFMKPGLPTTFATLDIDGVRKIIFALPGNPVSAVVTCNLFVVPALRKMQGILDPRPTIIKARLSCDVKLDPRPEYHRCILTWHHQEPLPWAQSTGNQMSSRLMSMRSANGLLMLPPKTEQYVELHKGEVVDVMVIGRL
